Measurements: publication PMC3808375, “Reduction of Decoy Receptor 3 Enhances TRAIL-Mediated Apoptosis in Pancreatic Cancer” (PLoS ONE, 2013)
These are yes or no findings as the source states them, for the method shown. For some of these results: In cells and extracts the contact can be indirect. Some entries that bind do so weakly or less than the wild type. One block for each molecule: values may come before it.

Chains of the proteins cited; added tags and fusions are not shown. Lines headed by an entry give the natural chain unless they say otherwise; changes in a name come on top.
UniProt P48023: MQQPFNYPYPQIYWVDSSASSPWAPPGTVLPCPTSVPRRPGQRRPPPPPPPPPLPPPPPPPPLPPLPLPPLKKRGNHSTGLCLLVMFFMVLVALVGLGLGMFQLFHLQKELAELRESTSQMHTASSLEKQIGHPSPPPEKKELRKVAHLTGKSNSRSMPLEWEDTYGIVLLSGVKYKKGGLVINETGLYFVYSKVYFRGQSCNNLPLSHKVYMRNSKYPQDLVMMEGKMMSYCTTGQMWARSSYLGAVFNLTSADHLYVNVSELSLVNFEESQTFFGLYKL

Assays:
[1] = target: T1, recombinant human DcR3 (decoy receptor 3) (human) (UniProt O95407); test: ELISA; wells coated with DcR3 (2 µg/ml); recombinant FasL or TRAIL (1 µg/ml) added with or without free DcR3 (20-50 µg/ml); detected with biotinylated anti-FasL or anti-TRAIL; both purified
T1 sequence: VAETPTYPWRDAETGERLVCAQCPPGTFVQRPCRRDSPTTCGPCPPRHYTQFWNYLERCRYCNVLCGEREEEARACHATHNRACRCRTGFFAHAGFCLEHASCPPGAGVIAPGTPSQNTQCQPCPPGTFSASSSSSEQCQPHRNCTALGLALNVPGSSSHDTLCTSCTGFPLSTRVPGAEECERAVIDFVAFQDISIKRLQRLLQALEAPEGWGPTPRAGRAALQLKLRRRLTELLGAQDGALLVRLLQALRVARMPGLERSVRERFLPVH

[2] = target: T2, endogenous DcR3 of AsPC-1 cells (human (endogenous in AsPC-1)), O95407; test: co-IP; AsPC-1 cell lysate precipitated with anti-DcR3 or anti-TRAIL at 4°C overnight, protein A beads; blot with biotinylated anti-TRAIL or anti-DcR3; FasL as positive control; conditions: remark: other sources report otherwise
T2 chain: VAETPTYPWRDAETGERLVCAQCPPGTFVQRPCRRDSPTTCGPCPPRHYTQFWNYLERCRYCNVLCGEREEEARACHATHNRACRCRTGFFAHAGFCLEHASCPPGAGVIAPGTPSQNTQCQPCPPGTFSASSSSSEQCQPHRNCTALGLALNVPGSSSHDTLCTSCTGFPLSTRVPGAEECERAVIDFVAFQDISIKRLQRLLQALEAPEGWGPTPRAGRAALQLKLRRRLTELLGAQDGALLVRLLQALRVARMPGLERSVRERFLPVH

[3] = target: T3, membrane-bound TRAIL of pancreatic cancer cells (human (endogenous in AsPC-1 and MiaPaCa-2)), P50591; test: as above; conditions: remark: other sources report otherwise
T3 chain: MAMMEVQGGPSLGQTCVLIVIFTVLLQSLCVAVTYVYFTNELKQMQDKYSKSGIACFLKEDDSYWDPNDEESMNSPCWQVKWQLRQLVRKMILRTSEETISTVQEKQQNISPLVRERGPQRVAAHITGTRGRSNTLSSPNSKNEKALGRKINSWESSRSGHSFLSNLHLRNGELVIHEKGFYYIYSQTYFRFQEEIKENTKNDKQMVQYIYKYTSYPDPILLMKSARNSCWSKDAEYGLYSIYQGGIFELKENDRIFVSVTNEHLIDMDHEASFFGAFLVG

[4] = target: T3, membrane-bound TRAIL of pancreatic …; test: Western blotting of a complex band in tumor lysate; lysate (30 µg/sample) of AsPC-1 tumors from nude mice, stained with anti-TRAIL and anti-DcR3; two bands each; conditions: remark: other sources report otherwise
[5] = target: T3, membrane-bound TRAIL of pancreatic …; test: flow cytometry on cells; AsPC-1 cells incubated with recombinant DcR3 (5 µg/ml) with or without TRAIL (5 µg/ml) or anti-TRAIL monoclonal antibody (1 µg/ml), 1 hour at 4°C; bound DcR3 detected with biotinylated anti-DcR3 and FITC-streptavidin; only the binder purified; conditions: remark: other sources report otherwise
[6] = target: T3, membrane-bound TRAIL of pancreatic …; test: flow cytometry on cells; AsPC-1 (gemcitabine 0-1000 nM) or MiaPaCa-2 (0-100 nM) cells; recombinant DcR3 added to block the access of anti-TRAIL; exposed TRAIL stained with anti-TRAIL; only the binder purified; conditions: remark: other sources report otherwise
[7] = target: recombinant FasL (UniProt P48023); test: ELISA; wells coated with recombinant FasL or TRAIL (1 µg/ml); recombinant DcR3 (1 µg/ml) added with or without free TRAIL or FasL (10-20 µg/ml), 4°C overnight; detected with biotinylated DcR3 antibody; both purified
[8] = target: recombinant FasL (UniProt P48023); test: co-IP; 100 µl mixture of pure recombinant DcR3 and TRAIL (1 µg/ml) precipitated with anti-DcR3 or anti-TRAIL and protein A beads; eluted with non-denatured Laemmli buffer; blot with biotinylated anti-TRAIL or anti-DcR3; FasL as positive control; both purified
[9] = target: endogenous FasL of AsPC-1 cells (human (endogenous in AsPC-1)) (UniProt P48023); test: co-IP; AsPC-1 cell lysate precipitated with anti-DcR3 or anti-TRAIL at 4°C overnight, protein A beads; blot with biotinylated anti-TRAIL or anti-DcR3; FasL as positive control
[10] = target: endogenous FasL of AsPC-1 cells (human (endogenous in AsPC-1)) (UniProt P48023); test: co-IP; AsPC-1 culture media precipitated with anti-DcR3 or anti-TRAIL at 4°C overnight, protein A beads; blot with biotinylated anti-TRAIL or anti-DcR3; FasL as positive control

binding [1]: binds
Molecule: recombinant FasL (from UniProt P48023 130-281) (ligand)

binding [2]: binds
B1: membrane-bound TRAIL of pancreatic cancer cells, P50591 1-281 (ligand)
chain: MAMMEVQGGPSLGQTCVLIVIFTVLLQSLCVAVTYVYFTNELKQMQDKYSKSGIACFLKEDDSYWDPNDEESMNSPCWQVKWQLRQLVRKMILRTSEETISTVQEKQQNISPLVRERGPQRVAAHITGTRGRSNTLSSPNSKNEKALGRKINSWESSRSGHSFLSNLHLRNGELVIHEKGFYYIYSQTYFRFQEEIKENTKNDKQMVQYIYKYTSYPDPILLMKSARNSCWSKDAEYGLYSIYQGGIFELKENDRIFVSVTNEHLIDMDHEASFFGAFLVG

binding [3]: binds
binding [4]: binds
B2: endogenous DcR3 of AsPC-1 cells, O95407 30-300 (receptor)
chain: VAETPTYPWRDAETGERLVCAQCPPGTFVQRPCRRDSPTTCGPCPPRHYTQFWNYLERCRYCNVLCGEREEEARACHATHNRACRCRTGFFAHAGFCLEHASCPPGAGVIAPGTPSQNTQCQPCPPGTFSASSSSSEQCQPHRNCTALGLALNVPGSSSHDTLCTSCTGFPLSTRVPGAEECERAVIDFVAFQDISIKRLQRLLQALEAPEGWGPTPRAGRAALQLKLRRRLTELLGAQDGALLVRLLQALRVARMPGLERSVRERFLPVH

binding [7]: binds
binding [8]: binds
B4: recombinant human DcR3 (decoy receptor 3) (receptor, UniProt O95407 30-300)
chain: VAETPTYPWRDAETGERLVCAQCPPGTFVQRPCRRDSPTTCGPCPPRHYTQFWNYLERCRYCNVLCGEREEEARACHATHNRACRCRTGFFAHAGFCLEHASCPPGAGVIAPGTPSQNTQCQPCPPGTFSASSSSSEQCQPHRNCTALGLALNVPGSSSHDTLCTSCTGFPLSTRVPGAEECERAVIDFVAFQDISIKRLQRLLQALEAPEGWGPTPRAGRAALQLKLRRRLTELLGAQDGALLVRLLQALRVARMPGLERSVRERFLPVH

The next lines start with the molecule.

B3: recombinant human DcR3 (decoy receptor 3), O95407 30-300 (receptor)
chain: VAETPTYPWRDAETGERLVCAQCPPGTFVQRPCRRDSPTTCGPCPPRHYTQFWNYLERCRYCNVLCGEREEEARACHATHNRACRCRTGFFAHAGFCLEHASCPPGAGVIAPGTPSQNTQCQPCPPGTFSASSSSSEQCQPHRNCTALGLALNVPGSSSHDTLCTSCTGFPLSTRVPGAEECERAVIDFVAFQDISIKRLQRLLQALEAPEGWGPTPRAGRAALQLKLRRRLTELLGAQDGALLVRLLQALRVARMPGLERSVRERFLPVH
binding [5]: binds
binding [6]: binds

B5: endogenous DcR3 of AsPC-1 cells (receptor, UniProt O95407 30-300)
chain: VAETPTYPWRDAETGERLVCAQCPPGTFVQRPCRRDSPTTCGPCPPRHYTQFWNYLERCRYCNVLCGEREEEARACHATHNRACRCRTGFFAHAGFCLEHASCPPGAGVIAPGTPSQNTQCQPCPPGTFSASSSSSEQCQPHRNCTALGLALNVPGSSSHDTLCTSCTGFPLSTRVPGAEECERAVIDFVAFQDISIKRLQRLLQALEAPEGWGPTPRAGRAALQLKLRRRLTELLGAQDGALLVRLLQALRVARMPGLERSVRERFLPVH
binding [9]: binds
binding [10]: binds
